The target of one assay is GluA1 (UniProt P19490). In words: co-IP; HEK293 cells co-transfected; lysis in 20 mM HEPES pH 7.5, 150 mM NaCl, 10% glycerol, 2 mM EDTA, 1% beta-D-dodecyl maltoside; anti-SK2 (guinea pig), anti-GluA1 or control IgG with protein A/G agarose overnight at 4°C; Western blot. A general note: A western blot detects proteins with antibodies after separation by electrophoresis.
The target in another assay is myc-SK2-S (UniProt P58390). Described as above.

Amino acid sequences for entries named in this document (tags omitted). Residues count along the entry.
UniProt P19490, residues 19-907: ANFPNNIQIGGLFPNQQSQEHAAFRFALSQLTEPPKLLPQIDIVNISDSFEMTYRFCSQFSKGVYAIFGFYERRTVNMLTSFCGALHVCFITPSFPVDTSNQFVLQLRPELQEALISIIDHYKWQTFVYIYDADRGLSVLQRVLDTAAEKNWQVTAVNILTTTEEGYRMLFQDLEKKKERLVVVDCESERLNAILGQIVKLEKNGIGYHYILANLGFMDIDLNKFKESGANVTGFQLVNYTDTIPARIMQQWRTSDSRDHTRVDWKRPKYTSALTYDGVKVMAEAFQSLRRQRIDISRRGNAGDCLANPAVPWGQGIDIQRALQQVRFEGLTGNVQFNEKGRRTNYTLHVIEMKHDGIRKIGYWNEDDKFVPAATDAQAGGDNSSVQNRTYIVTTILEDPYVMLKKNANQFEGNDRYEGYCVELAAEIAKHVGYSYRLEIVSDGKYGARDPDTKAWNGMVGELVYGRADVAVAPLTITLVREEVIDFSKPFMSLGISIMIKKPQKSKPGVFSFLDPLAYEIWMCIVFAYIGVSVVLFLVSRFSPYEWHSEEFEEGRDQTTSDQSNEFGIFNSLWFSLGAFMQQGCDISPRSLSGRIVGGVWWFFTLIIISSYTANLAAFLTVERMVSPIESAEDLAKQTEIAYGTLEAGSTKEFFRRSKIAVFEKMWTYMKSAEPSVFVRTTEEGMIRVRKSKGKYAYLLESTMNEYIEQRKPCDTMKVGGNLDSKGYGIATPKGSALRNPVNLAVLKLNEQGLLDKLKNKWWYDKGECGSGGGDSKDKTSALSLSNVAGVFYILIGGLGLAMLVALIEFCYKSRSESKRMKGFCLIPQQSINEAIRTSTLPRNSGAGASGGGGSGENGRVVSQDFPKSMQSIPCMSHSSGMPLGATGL
UniProt P58390, residues 266-839: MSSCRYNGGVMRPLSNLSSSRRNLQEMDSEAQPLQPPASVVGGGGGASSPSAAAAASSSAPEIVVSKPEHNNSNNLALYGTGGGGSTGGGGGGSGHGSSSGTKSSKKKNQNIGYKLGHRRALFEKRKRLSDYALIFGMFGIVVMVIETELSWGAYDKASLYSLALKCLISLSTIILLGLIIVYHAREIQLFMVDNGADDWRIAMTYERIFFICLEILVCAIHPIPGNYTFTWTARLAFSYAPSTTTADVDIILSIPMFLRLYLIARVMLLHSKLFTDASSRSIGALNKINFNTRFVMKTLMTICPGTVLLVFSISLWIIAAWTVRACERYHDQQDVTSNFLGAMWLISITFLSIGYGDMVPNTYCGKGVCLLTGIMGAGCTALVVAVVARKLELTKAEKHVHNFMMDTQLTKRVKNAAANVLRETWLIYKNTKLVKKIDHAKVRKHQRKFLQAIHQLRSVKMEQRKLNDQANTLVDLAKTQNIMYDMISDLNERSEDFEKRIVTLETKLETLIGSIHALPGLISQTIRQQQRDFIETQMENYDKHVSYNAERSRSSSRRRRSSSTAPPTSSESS
UniProt Q811D0: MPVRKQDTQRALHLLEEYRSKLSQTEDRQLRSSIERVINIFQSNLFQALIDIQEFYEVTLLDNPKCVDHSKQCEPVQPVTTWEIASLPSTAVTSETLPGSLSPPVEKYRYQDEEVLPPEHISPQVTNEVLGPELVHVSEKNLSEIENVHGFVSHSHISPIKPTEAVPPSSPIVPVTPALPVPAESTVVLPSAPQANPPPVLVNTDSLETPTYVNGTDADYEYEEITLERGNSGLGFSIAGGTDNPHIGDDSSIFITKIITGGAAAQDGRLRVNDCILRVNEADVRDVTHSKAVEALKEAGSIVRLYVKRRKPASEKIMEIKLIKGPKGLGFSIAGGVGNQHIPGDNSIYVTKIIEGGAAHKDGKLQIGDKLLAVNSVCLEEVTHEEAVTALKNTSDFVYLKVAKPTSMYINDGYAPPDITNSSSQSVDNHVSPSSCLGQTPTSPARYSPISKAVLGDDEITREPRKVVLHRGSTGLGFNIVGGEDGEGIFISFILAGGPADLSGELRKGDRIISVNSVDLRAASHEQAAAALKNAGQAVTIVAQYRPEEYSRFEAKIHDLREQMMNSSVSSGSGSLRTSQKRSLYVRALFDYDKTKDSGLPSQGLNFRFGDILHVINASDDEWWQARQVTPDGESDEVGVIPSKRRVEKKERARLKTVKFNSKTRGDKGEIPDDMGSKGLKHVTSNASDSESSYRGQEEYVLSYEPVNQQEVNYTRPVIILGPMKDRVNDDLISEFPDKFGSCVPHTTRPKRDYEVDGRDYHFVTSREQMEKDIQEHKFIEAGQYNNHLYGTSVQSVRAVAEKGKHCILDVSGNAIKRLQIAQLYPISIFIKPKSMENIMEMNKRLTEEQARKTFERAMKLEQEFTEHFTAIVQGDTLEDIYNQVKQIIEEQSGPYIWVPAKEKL

These are yes or no findings as the source states them, for the method shown. Binding seen in cells or lysates may run through a third protein. Some results given as binding are weak or reduced against the parent protein; the word gives no strength.

As for C8-SAP97 (from UniProt Q811D0 1-905), the binding entry in the assay with GluA1 was “binds”; with myc-SK2-S, “no binding”.
